According to paper PMC4661566:
Results are given in words; binding and its absence hold for the method and conditions named. Some entries that bind do so weakly or less than the wild type.

The chains behind the UniProt entries cited, without tags or fusion partners. Residues count along the entry.
UniProt O15379: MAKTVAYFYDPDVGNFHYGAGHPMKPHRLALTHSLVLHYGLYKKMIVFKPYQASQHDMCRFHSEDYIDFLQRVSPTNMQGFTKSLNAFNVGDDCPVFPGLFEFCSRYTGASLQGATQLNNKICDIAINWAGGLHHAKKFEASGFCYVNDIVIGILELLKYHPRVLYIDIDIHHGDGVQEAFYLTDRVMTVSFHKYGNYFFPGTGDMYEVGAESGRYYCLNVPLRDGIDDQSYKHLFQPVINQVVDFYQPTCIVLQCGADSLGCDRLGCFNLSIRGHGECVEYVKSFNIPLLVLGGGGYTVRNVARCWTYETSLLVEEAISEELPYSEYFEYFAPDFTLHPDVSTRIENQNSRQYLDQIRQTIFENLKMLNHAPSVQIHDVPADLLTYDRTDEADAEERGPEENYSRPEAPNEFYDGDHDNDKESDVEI
UniProt Q9Y618, residues 350-480: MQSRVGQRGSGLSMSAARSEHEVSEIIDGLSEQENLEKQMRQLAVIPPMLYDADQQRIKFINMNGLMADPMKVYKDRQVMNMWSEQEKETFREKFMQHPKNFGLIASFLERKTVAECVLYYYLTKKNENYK

Target: Histone deacetylase 3 (HDAC3), as co-expressed with SMRT 350–480 (human) (UniProt O15379)
Assay: co-purification; HDAC3 and SMRT 350–480 expressed in HEK-293 cells and purified as a complex as described in [37]; complex shown to be enzymatically active

- binding: binds
Substance: SMRT 350–480 (silencing mediator of retinoic and thyroid receptors, deacetylase-activating domain) (from UniProt Q9Y618 350-480) (domain or fragment)
